Test results published in publication PMC11672294, “The Antipsychotic Drug Aripiprazole Suppresses Colorectal Cancer by Targeting LAMP2a to Induce RNH1/miR‐99a/mTOR‐Mediated Autophagy and Apoptosis” (Advanced Science, 2024).
Structures can show the parent of a compound that is named as a salt. Only a part is listed here, and it is no random draw.

What follows are molecules tested on HT29. Details: 72 h, relative to DMSO; 10 µM.
Excerpt: To investigate the key signaling pathways and biological processes involved in CRC progression, we analyzed the National Center for Biotechnology Information Gene Expression Omnibus (GEO) dataset GSE115313, which included 42 CRC and paired normal tissues (Figure 1A). […] Next, we performed an Annexin V‐fluorescein isothiocyanate (FITC)/propidium iodide (PI) staining assay to determine the effect of aripiprazole on apoptosis in CRC cells. […] A) Principal component analysis of GEO dataset (GSE115313), which includes 42 CRC and paired normal tissues. B) Gene Ontology pathway analysis of the DEPs between CRC and paired normal tissues. […] D) Schematic diagram for identifying anticancer drugs amongst an US Food and Drug Administration‐approved small‐molecule library (616 compounds) using WST‐1 assay. E) HT29 cells were treated with the 616 drugs (10 µM) individually or with dimethyl sulfoxide for 72 h, followed by WST‐1 assay. […] J) Mice bearing HT29‐derived tumor xenografts were intragastrically administered with aripiprazole (10 or 20 mg kg^−1) once every 2 d, n = 6 mice/group. […] Bars, SD; ^* p < 0.05; ^** p < 0.01; ^*** p < 0.001; ns, no significant difference. The WST‐1 Cell Proliferation and Cytotoxicity Assay Kit (Beyotime Biotechnology, Shanghai, China) was used to measure cell viability, as described previously.^[ [10] ^] CRC cells were seeded into 96‐well plates and treated with different drug concentrations. Following that, WST‐1 was added to the plate and incubated with the cells for 2 h, at 37 °C. Absorbance at the wavelength of 450 nm was measured using an automated microplate spectrophotometer (BioTek Instruments, Winooski, VT, USA).

| SMILES | Relative cell viability (%) [%] |
| --- | --- |
| COC(=O)C1=C(C)NC(C)=C(C(=O)OC)C1c1ccccc1[N+](=O)[O-] [Nifedipine] | 90.68 |
| C[C@@H](O)[C@H]1C(=O)N2C(C(=O)OCOC(=O)C(C)(C)C)=C(SC3CN(C4=NCCS4)C3)[C@H](C)[C@H]12 [Tebipenem Pivoxil] | 110.2 |
| CCC[C@@H]1C[C@@H](C(=O)N[C@@H]([C@H]2O[C@H](SC)[C@H](O)[C@@H](O)[C@H]2O)[C@H](C)Cl)N(C)C1 [Clindamycin] | 60.68 |
| CCn1cc(C(=O)O)c(=O)c2cc(F)c(N3CCN(C)CC3)cc21 [Pefloxacin Mesylate] | 109.7 |
